Laboratory results: patent US5936065A (Cytel Corporation, priority 1995, dated 1999)

Assay: general procedure: Fmoc solid-phase peptide synthesis; Rink amide MBHA resin; DIC/HOBt
Conditions: whole synthesis, scale 5 mmoles

N-phenylacetyl-Leu-Asp-Phe-D-Pro-NH2 showed an isolated mass of 1.8 g.
